Test results: publication PMC4728208
No constants are given. Whether binding was seen depends on the method and setting. Binding seen in cells or lysates may run through a third protein. Some entries that bind do so weakly or less than the wild type.

Sequences of proteins named here, by UniProt entry; tags and fusion partners are left off. A change or cut given only in a name is not applied to a line headed by its entry.
UniProt P61224: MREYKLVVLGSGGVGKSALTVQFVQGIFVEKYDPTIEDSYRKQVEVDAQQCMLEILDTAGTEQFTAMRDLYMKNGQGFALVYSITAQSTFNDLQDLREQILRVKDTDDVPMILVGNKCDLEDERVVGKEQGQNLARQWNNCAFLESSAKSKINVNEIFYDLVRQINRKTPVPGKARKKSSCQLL
UniProt P17301: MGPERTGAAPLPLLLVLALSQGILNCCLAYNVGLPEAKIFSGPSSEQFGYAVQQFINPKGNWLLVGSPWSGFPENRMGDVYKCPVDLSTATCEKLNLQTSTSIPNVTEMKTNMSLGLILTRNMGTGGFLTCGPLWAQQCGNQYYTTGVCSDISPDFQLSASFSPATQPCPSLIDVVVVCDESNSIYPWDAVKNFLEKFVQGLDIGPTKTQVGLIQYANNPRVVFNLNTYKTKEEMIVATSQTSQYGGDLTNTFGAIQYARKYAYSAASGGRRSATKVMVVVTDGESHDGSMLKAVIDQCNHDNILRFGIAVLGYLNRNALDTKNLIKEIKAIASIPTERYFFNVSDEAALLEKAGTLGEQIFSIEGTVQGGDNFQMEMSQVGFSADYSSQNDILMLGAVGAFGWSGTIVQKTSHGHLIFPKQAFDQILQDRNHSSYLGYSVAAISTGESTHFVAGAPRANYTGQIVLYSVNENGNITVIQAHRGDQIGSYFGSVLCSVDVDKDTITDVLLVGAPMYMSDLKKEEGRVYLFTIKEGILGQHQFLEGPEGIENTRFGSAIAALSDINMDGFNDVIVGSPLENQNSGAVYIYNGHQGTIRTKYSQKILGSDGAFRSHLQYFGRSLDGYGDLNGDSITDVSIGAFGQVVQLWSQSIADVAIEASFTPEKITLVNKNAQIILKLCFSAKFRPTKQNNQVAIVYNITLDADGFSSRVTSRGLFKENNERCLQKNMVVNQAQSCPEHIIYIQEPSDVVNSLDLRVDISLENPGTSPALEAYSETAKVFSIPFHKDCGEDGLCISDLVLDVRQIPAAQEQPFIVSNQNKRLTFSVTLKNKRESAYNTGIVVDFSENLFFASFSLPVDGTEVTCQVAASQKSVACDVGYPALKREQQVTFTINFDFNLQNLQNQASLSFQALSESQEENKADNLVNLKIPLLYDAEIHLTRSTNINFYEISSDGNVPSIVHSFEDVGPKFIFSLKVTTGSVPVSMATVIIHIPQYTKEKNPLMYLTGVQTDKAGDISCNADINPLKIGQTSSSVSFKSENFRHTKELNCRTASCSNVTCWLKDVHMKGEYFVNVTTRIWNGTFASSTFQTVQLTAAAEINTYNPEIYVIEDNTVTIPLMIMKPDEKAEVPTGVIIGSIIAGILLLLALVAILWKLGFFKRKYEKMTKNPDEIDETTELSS
UniProt P46940: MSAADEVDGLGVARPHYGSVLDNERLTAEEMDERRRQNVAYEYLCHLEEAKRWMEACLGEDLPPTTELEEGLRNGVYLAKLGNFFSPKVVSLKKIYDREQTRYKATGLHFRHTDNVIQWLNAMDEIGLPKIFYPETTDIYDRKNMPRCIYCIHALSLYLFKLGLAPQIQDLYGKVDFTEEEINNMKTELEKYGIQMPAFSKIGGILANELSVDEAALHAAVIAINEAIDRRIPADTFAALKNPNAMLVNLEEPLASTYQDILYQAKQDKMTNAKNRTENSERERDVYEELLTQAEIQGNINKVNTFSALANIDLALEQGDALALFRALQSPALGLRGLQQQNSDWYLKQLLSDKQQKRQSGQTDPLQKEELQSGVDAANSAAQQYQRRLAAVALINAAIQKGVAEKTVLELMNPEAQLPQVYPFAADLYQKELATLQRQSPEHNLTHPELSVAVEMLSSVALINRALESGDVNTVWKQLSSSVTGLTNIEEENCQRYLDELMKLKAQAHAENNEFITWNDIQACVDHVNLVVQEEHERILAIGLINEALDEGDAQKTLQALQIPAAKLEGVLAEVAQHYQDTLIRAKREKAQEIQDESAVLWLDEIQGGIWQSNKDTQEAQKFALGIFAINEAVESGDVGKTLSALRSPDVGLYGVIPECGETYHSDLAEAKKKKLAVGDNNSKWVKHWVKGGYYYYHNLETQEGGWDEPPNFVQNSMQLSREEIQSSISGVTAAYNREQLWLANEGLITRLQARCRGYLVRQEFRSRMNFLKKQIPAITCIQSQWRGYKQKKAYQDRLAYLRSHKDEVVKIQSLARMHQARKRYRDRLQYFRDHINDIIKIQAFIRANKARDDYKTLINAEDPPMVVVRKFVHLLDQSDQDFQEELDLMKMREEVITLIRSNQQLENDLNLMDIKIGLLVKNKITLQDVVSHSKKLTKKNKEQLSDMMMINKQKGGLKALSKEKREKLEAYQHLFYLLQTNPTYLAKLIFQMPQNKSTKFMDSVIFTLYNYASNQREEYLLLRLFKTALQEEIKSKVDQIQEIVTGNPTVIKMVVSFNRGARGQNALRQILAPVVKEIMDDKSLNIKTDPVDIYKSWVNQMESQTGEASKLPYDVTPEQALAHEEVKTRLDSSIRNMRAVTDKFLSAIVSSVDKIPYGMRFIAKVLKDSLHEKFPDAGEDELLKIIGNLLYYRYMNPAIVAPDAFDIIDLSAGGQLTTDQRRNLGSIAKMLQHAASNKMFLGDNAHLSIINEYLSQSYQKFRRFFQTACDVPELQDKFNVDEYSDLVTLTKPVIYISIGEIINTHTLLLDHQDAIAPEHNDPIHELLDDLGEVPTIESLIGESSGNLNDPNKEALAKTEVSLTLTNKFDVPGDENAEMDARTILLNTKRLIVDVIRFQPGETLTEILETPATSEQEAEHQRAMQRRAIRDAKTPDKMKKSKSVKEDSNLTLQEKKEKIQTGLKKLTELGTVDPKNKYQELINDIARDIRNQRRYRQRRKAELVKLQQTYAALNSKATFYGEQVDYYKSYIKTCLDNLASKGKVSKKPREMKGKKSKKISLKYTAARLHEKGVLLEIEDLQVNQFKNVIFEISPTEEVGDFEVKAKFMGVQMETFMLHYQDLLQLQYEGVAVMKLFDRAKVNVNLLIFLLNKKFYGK
UniProt Q9Y5S2: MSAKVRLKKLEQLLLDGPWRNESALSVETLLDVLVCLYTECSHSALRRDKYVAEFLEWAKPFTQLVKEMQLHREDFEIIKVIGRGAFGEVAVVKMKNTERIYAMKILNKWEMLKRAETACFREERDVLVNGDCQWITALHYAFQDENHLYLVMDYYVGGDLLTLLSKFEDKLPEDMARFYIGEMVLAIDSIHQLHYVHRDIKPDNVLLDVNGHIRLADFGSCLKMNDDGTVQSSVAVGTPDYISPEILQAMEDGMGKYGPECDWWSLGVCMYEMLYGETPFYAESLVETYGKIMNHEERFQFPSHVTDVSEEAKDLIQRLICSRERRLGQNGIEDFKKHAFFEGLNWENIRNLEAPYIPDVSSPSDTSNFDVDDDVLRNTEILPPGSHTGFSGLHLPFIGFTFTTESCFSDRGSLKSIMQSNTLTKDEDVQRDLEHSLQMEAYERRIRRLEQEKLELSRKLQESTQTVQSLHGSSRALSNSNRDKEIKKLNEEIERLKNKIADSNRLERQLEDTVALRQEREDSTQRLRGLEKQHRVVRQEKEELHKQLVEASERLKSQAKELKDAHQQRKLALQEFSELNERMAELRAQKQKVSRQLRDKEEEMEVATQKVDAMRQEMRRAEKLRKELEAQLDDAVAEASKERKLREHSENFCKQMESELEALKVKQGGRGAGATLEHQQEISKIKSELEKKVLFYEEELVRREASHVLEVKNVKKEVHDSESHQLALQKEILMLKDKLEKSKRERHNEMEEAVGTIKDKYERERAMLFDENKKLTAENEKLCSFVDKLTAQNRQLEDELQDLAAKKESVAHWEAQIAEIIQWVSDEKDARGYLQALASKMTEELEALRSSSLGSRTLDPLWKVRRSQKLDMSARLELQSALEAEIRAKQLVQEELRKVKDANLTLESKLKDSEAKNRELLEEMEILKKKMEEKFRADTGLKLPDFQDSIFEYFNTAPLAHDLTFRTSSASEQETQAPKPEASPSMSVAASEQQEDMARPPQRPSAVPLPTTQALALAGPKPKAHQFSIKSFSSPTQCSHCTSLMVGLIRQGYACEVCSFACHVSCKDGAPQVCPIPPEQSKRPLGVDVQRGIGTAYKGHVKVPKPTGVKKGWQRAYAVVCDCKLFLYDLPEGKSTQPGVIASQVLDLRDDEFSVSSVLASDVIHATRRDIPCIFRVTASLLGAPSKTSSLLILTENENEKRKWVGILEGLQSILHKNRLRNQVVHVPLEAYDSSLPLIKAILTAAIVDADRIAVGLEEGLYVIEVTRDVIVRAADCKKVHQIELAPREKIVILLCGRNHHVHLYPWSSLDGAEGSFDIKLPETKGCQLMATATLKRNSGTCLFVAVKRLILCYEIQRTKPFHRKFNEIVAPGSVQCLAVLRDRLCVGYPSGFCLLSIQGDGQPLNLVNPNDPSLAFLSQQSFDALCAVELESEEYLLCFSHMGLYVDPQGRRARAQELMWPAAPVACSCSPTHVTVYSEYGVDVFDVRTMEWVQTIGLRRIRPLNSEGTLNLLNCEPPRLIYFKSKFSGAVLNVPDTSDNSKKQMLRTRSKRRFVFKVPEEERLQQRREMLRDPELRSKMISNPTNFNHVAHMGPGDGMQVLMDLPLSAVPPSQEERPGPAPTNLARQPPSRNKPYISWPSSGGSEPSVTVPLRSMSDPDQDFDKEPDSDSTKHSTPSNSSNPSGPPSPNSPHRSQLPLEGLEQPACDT

Columns and labels:
[1] = target: S-epitope tagged mCherry-Cdc42 fusion protein (UniProt P60953); assay: pull-down; S-epitope tagged mCherry-GTPases expressed in ECs in 3D collagen matrices (0-16 hr; with or without increased PKCɛ expression); lysates in 1% Triton X-100, 10 mM Tris pH 7.5, 150 mM NaCl, 1 mM DTT, MgCl2 (or MgCl2 and CaCl2), 100 μM GTPγS; S-protein agarose 1 hour at 4°C, 4 washes; bound proteins detected by western blot
[2] = target: S-epitope tagged mCherry-Rap1b fusion protein (UniProt P61224); assay: as above

Substance | binding [1] | binding [2]
α2β1 integrin (from UniProt P17301 30-1181; P05556 21-798) (complex) | binds weakly | 
IQGAP1 (from UniProt P46940 1-1657) | binds | no binding
MRCKβ (from UniProt Q9Y5S2 1-1711) (enzyme) | binds | 
